Assay results published in patent publication US7410975B2, “Small molecule toll-like receptor (TLR) antagonists” (Coley Pharmaceutical Group, Inc., priority 2003, dated 2008).

Key:
Assay type in all cases: cell-based
human TLR9 (hTLR9) = molecular target: T1, human TLR9 (hTLR9) (Homo sapiens, UniProt Q9NR96); experiment: Antagonist screen, hTLR9-NFκB-293 cells, 6× NF-κB-luciferase reporter, with EC50 of CpG ODN 2006; details: compound at 0.5, 5, 50 μg/ml, EC50 concentration of CpG ODN 2006, 16 h
T1 construct: expressed in transfected cells
T1 sequence (Q9NR96 26-1032): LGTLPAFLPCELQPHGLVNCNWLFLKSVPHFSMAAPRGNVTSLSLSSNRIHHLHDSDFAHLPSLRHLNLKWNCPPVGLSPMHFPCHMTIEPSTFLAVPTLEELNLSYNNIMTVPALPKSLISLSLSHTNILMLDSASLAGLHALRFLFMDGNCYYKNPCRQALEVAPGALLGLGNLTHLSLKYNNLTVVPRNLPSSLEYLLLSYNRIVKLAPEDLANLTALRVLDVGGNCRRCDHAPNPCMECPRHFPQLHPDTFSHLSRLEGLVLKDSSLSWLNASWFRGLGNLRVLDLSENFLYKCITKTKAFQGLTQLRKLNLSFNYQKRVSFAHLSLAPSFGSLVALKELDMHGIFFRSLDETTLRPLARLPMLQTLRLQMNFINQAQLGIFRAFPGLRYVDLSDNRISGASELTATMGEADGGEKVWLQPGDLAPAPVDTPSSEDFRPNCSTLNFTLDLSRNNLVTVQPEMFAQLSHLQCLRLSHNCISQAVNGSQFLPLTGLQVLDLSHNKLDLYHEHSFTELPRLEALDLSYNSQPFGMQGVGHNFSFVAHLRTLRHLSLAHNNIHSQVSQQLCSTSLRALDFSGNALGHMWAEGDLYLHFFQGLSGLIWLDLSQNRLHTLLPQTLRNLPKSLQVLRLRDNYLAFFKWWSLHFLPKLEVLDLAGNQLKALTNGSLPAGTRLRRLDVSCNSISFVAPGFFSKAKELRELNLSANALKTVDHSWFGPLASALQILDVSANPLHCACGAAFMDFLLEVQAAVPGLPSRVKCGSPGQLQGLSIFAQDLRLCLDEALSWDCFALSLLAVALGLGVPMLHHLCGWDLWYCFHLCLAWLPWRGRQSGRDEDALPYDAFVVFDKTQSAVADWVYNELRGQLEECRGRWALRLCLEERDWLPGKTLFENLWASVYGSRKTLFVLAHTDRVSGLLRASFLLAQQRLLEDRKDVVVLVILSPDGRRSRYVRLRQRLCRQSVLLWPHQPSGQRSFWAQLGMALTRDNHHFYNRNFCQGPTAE
Description: Candidate small molecules for initial screening were obtained from a commercially available library of 880 off-patent small molecules selected for structural diversity and proven bioavailability in humans (Prestwick Chemical Library). […] Results were measured as fold induction over baseline luciferase activity measured in the absence of ODN 2006 and compared to fold induction over baseline in the presence of the EC50 concentration of ODN 2006 alone. From this initial screening a number of small molecules were identified as lead compounds and were categorized by structure and activity. […]
The method is described in greater detail as follows. The cells for each individual cell clone (hTLR3-NFκB-293, hTLR7-NFκB-293, hTLR8-NFκB-293 and hTLR9-NFκB-293) were counted and seeded one day before the stimulation at 1.5×10^4 cells per well in 96-well cell culture plates. […]
For each screen result a graphical documentation was performed. A numerical score, describing the graphical results, was determined for each compound. […]
The baseline result (measured with addition of the EC50 concentration of the receptor-specific ligand) for each cell culture plate was measured as described above. Antagonistic effects were measured by down regulation compared to the baseline. […]

human TLR7 (hTLR7) = molecular target: T2, human TLR7 (hTLR7) (Homo sapiens, UniProt Q9NYK1); experiment: Antagonist screen, hTLR7-NFκB-293 cells, NF-κB-luciferase reporter, with EC50 of R848; details: compound at 0.5, 5, 50 μg/ml, EC50 concentration of R848, 16 h
T2 construct: expressed in transfected cells
T2 sequence (Q9NYK1 27-1049): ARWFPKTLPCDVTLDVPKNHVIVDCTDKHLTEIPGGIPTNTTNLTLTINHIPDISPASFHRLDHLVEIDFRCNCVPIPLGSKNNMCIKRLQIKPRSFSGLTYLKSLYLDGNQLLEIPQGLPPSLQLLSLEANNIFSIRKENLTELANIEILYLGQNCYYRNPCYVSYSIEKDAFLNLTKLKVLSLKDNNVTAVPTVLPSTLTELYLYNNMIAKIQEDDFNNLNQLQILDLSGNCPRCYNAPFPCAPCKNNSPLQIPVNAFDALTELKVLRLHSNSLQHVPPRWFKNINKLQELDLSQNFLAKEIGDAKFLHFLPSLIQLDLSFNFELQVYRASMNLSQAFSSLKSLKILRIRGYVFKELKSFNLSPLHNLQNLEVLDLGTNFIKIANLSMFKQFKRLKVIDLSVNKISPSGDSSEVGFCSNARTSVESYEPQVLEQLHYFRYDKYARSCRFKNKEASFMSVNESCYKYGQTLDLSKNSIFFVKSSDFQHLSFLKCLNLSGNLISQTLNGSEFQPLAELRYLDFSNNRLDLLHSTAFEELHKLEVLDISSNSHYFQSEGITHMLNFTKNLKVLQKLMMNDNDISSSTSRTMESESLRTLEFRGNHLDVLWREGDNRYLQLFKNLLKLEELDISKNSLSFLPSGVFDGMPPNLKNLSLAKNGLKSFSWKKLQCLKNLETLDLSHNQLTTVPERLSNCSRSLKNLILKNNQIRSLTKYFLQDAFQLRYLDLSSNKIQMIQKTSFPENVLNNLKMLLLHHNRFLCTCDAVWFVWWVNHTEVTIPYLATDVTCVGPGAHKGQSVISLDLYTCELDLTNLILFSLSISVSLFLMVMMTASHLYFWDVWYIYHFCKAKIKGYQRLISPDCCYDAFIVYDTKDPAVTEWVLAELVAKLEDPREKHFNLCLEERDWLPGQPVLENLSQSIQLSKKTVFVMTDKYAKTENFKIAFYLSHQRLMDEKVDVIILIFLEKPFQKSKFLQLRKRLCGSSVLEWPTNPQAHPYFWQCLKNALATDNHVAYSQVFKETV
Description: (§1) The method is described in greater detail as follows. The cells for each individual cell clone (hTLR3-NFκB-293, hTLR7-NFκB-293, hTLR8-NFκB-293 and hTLR9-NFκB-293) were counted and seeded one day before the stimulation at 1.5×10^4 cells per well in 96-well cell culture plates. To become adherent the cells were incubated after seeding overnight at 37° C. in 5% CO2 humidified air.
(§2) The screen for each compound was performed at the same time for all of the receptors TLR3, TLR7, TLR8 and TLR9. […]
(§3) The baseline result (measured with addition of the EC50 concentration of the receptor-specific ligand) for each cell culture plate was measured as described above. Antagonistic effects were measured by down regulation compared to the baseline. Antagonists were scored as follows: • 13: compounds for which there was clear down regulation at 0.5 μg/ml, 5 μg/ml, and 50 μg/ml; • 12: compounds for which there was clear down regulation at 5 μg/ml and 50 μg/ml; • 11: compounds for which there was clear down regulation only at 50 μg/ml; • —: compounds for which there was no clear down regulation even at 50 μg/ml. […]
(§4) Results were expressed as fold induction over baseline luciferase activity measured in the absence of R848. […]

human TLR3 (hTLR3) = molecular target: T3, human TLR3 (hTLR3) (Homo sapiens, UniProt O15455); experiment: Antagonist screen, hTLR3-NFκB-293 cells, NF-κB-luciferase reporter, with EC50 of poly(I:C); details: compound at 0.5, 5, 50 μg/ml, EC50 concentration of poly(I:C), 16 h
T3 construct: expressed in transfected cells
T3 sequence (O15455 24-904): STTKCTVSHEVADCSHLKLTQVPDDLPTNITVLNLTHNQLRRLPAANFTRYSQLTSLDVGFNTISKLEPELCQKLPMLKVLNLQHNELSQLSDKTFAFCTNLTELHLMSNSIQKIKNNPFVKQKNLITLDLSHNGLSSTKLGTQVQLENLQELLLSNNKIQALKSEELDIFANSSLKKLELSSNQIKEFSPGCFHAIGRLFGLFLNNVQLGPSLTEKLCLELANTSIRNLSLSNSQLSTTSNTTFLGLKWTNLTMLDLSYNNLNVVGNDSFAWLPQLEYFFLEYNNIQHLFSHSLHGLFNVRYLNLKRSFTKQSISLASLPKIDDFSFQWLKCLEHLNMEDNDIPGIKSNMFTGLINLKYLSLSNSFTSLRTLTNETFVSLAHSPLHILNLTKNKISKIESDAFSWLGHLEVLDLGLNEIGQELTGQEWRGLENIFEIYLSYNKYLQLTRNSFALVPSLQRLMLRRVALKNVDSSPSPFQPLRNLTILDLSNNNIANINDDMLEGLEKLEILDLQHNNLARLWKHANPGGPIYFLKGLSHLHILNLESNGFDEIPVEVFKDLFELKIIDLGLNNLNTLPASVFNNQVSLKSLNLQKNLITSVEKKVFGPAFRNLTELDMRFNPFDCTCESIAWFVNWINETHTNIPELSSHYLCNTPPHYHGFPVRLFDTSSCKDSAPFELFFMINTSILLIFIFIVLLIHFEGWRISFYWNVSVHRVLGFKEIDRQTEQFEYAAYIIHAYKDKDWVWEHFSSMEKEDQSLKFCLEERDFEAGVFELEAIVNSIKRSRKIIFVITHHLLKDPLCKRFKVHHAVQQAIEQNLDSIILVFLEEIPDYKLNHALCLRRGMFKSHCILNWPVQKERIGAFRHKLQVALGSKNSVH
Description: as §1, §2, §3
Results were expressed as fold induction over baseline luciferase activity measured in the absence of poly(I:C). […]

human TLR8 (hTLR8) = molecular target: T4, human TLR8 (hTLR8) (Homo sapiens, UniProt Q9NR97); experiment: Antagonist screen, hTLR8-NFκB-293 cells, NF-κB-luciferase reporter, with EC50 of R848; details: compound at 0.5, 5, 50 μg/ml, EC50 concentration of R848, 16 h
T4 construct: expressed in transfected cells
T4 sequence (Q9NR97 27-1041): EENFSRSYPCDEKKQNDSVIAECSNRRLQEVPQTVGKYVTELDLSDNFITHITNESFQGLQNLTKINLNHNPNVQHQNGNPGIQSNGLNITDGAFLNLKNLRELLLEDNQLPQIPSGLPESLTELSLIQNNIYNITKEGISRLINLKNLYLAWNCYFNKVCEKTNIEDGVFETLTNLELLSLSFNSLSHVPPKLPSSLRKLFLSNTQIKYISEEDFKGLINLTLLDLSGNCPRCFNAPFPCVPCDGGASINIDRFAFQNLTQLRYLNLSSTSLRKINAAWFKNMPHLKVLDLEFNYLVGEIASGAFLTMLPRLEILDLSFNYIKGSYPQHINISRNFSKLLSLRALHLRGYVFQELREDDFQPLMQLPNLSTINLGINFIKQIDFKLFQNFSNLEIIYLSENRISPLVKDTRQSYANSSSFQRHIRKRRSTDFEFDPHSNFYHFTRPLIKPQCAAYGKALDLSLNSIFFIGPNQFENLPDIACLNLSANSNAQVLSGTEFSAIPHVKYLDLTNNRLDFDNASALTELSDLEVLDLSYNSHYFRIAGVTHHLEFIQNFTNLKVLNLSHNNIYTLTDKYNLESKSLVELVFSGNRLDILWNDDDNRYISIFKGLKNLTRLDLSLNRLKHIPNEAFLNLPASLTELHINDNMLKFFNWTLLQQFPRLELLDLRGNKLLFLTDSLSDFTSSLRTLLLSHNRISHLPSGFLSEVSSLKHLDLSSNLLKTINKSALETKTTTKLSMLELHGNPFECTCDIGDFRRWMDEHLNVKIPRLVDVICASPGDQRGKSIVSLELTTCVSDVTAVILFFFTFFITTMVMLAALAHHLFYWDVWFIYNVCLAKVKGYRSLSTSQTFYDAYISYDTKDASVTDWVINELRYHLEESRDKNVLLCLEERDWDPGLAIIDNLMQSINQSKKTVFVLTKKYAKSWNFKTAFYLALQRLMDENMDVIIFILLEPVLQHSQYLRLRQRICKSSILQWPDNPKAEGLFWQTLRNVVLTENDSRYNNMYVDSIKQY
Description: as §1, §2, §3, §4

CN(C)CCOC(c1ccccc1)c1ccccc1.Cl [compound 65, Diphenhydraminehydrochloride]
hTLR9 (inhibitory effect, antagonist score) (human TLR9 (hTLR9)): 11 (compounds for which there was clear down regulation only at 50 μg/ml) | hTLR7 (inhibitory effect, antagonist score) (human TLR7 (hTLR7)): — (compounds for which there was no clear down regulation even at 50 μg/ml) | hTLR3 (inhibitory effect, antagonist score) (human TLR3 (hTLR3)): — (compounds for which there was no clear down regulation even at 50 μg/ml) | hTLR8 (inhibitory effect, antagonist score) (human TLR8 (hTLR8)): — (compounds for which there was no clear down regulation even at 50 μg/ml)
